The supplement of paper PMC12067093, “Discovery and optimisation of a covalent ligand for TRIM25 and its application to targeted protein ubiquitination” (Chemical Science, 2025)
The other results are listed elsewhere or left out.

By UniProt entry, the sequences of proteins in these tests, tags left out. Where a name states a change or a piece, a line headed by the entry shows the natural chain unless it says otherwise.
UniProt Q9NNW5: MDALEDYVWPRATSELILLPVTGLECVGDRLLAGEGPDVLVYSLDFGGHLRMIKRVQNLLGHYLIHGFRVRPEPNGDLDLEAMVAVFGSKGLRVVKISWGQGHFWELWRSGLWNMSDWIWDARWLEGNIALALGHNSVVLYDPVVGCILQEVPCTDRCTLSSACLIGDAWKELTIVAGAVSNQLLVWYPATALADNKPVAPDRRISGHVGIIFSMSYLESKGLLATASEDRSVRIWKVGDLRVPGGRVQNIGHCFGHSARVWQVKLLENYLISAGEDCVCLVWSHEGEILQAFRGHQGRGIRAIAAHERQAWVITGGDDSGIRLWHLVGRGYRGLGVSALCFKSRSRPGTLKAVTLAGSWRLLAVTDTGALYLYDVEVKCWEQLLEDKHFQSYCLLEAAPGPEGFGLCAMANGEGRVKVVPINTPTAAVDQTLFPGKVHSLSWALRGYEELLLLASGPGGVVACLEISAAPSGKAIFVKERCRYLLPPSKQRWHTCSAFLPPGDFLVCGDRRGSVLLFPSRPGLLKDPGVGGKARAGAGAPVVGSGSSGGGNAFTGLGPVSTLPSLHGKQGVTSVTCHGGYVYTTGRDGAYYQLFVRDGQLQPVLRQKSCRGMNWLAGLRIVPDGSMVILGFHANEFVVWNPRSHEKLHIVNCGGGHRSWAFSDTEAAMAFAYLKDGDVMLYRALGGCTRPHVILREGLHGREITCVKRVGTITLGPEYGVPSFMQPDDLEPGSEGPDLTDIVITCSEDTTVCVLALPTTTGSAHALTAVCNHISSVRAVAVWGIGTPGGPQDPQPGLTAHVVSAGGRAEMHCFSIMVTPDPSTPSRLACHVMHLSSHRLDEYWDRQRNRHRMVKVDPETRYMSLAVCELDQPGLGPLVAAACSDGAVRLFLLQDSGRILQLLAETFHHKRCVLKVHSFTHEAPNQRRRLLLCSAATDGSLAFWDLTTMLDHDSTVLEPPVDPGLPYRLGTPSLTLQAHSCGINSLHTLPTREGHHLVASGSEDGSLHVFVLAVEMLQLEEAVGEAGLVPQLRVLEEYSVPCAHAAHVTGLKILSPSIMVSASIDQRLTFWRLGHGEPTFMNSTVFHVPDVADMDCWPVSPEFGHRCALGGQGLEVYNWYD
UniProt Q8IWB7: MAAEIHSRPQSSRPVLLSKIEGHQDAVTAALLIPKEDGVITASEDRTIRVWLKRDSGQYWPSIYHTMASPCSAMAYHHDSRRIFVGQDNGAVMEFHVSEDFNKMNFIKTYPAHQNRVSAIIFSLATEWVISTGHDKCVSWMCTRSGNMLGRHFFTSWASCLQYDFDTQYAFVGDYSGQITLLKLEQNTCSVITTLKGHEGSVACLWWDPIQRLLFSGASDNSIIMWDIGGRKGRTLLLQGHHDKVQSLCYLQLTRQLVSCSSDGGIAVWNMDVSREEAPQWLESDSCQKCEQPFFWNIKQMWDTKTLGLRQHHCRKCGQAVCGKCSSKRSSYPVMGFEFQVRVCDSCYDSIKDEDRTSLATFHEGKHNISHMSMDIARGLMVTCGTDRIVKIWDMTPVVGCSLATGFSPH
UniProt Q6GPH4: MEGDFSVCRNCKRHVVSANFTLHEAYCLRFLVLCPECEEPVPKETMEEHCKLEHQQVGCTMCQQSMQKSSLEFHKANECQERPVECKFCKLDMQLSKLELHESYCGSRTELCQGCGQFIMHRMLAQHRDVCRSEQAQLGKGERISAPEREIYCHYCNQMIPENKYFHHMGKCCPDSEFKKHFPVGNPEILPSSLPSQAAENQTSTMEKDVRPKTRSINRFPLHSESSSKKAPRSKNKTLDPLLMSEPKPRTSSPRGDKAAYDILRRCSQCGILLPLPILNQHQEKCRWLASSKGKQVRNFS

Compound: CC1Cc2ccccc2N1C(=O)C1CCCN(C1)C(=O)CCl (mixture of isomers) [TRIM25 ligand 11 (diastereomer mixture)]
Experiment: probe-labelled cysteine peptide fold change vs DMSO (competition) (log2 fold change); higher = less target engagement (more negative = stronger competition)
Conditions: THP-1, incubation time: 4 h
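Note: competitive chemoproteomic profiling in live THP-1 cells with an iodoacetamide desthiobiotin (IA-DTB) probe, comparing probe-labelled peptide intensities in compound-treated cells against DMSO-treated controls.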

Target: WDR6_Q9NNW5_26_ATSELILLPVTGLECVGDR (UniProt Q9NNW5)
- probe-labelled cysteine peptide fold change (10 µM): -0.04
- probe-labelled cysteine peptide fold change (50 µM): 0.0348

Target: WDFY1_Q8IWB7_344_VCDSCYDSIKDEDR (UniProt Q8IWB7)
- probe-labelled cysteine peptide fold change (10 µM): -0.0473
- probe-labelled cysteine peptide fold change (50 µM): 0.016

Target: WDFY3_Q8IZQ1_896_NQQVMCEAGLHAR (UniProt Q8IZQ1)
- probe-labelled cysteine peptide fold change (10 µM): 0.425
- probe-labelled cysteine peptide fold change (50 µM): 0.194

Target: XAF1_Q6GPH4_62_LEHQQVGCTMCQQSMQK (UniProt Q6GPH4)
- probe-labelled cysteine peptide fold change (10 µM): -0.157
- probe-labelled cysteine peptide fold change (50 µM): -0.202
